Test results: the supplement of paper PMC10849652
This is one part of the list.

The chains behind the UniProt entries cited, without tags or fusion partners. Where a name states a change or a piece, a line headed by the entry shows the natural chain unless it says otherwise.
UniProt Q9Y3C1: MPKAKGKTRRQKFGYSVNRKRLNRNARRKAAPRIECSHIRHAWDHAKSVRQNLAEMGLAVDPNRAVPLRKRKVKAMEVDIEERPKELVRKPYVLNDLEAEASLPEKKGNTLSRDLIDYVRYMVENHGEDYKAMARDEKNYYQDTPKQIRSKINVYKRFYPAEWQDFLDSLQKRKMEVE
UniProt Q96T66: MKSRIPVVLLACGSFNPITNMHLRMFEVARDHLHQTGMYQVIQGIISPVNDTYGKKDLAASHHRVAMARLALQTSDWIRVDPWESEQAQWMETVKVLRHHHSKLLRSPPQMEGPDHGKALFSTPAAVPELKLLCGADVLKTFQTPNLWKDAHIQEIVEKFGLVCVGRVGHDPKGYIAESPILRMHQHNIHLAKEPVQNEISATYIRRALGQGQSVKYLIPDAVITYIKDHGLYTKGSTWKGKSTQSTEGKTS
UniProt Q9Y314: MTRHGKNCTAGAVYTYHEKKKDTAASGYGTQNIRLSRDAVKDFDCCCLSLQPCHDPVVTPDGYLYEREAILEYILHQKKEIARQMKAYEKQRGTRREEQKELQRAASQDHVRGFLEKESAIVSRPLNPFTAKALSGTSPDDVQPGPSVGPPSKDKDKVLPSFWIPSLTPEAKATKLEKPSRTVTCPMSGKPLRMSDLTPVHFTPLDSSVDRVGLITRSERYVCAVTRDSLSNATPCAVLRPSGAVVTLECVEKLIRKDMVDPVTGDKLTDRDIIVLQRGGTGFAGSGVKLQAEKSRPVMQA
UniProt Q13287: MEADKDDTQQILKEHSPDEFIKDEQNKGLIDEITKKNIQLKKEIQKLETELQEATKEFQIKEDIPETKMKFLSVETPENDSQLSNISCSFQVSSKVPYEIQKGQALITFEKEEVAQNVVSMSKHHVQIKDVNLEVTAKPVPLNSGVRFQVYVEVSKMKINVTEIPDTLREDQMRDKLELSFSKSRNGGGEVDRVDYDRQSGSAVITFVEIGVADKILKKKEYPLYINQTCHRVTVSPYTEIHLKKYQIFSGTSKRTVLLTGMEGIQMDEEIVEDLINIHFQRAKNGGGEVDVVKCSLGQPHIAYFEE
UniProt P15531, whole entry, looked up: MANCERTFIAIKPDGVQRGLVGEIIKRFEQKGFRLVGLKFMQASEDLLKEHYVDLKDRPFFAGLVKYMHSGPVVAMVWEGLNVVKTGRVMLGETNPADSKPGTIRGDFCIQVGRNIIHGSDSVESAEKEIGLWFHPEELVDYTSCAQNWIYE
UniProt Q9UFN0: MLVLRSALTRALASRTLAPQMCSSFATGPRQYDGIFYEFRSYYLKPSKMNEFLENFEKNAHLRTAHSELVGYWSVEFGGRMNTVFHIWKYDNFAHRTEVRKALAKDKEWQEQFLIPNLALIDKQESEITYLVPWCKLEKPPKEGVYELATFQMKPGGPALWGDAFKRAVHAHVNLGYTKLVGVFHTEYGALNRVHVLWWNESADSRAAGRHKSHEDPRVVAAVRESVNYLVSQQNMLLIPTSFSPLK
UniProt Q9BPW8: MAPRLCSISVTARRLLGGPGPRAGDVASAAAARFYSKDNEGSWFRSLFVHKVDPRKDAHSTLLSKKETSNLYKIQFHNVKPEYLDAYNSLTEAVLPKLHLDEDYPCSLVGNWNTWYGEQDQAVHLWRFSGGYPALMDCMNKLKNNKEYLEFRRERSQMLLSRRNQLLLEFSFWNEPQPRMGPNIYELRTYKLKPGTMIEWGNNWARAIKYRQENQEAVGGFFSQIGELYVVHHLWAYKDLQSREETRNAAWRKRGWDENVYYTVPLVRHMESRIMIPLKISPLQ
UniProt P61916: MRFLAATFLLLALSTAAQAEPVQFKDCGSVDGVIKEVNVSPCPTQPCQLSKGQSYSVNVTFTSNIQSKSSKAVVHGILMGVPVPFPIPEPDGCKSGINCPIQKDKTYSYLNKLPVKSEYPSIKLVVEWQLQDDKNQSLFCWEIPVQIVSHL
UniProt Q92686, whole entry, looked up: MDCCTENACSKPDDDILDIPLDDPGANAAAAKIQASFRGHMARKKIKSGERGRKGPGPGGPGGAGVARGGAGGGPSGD
UniProt P30414: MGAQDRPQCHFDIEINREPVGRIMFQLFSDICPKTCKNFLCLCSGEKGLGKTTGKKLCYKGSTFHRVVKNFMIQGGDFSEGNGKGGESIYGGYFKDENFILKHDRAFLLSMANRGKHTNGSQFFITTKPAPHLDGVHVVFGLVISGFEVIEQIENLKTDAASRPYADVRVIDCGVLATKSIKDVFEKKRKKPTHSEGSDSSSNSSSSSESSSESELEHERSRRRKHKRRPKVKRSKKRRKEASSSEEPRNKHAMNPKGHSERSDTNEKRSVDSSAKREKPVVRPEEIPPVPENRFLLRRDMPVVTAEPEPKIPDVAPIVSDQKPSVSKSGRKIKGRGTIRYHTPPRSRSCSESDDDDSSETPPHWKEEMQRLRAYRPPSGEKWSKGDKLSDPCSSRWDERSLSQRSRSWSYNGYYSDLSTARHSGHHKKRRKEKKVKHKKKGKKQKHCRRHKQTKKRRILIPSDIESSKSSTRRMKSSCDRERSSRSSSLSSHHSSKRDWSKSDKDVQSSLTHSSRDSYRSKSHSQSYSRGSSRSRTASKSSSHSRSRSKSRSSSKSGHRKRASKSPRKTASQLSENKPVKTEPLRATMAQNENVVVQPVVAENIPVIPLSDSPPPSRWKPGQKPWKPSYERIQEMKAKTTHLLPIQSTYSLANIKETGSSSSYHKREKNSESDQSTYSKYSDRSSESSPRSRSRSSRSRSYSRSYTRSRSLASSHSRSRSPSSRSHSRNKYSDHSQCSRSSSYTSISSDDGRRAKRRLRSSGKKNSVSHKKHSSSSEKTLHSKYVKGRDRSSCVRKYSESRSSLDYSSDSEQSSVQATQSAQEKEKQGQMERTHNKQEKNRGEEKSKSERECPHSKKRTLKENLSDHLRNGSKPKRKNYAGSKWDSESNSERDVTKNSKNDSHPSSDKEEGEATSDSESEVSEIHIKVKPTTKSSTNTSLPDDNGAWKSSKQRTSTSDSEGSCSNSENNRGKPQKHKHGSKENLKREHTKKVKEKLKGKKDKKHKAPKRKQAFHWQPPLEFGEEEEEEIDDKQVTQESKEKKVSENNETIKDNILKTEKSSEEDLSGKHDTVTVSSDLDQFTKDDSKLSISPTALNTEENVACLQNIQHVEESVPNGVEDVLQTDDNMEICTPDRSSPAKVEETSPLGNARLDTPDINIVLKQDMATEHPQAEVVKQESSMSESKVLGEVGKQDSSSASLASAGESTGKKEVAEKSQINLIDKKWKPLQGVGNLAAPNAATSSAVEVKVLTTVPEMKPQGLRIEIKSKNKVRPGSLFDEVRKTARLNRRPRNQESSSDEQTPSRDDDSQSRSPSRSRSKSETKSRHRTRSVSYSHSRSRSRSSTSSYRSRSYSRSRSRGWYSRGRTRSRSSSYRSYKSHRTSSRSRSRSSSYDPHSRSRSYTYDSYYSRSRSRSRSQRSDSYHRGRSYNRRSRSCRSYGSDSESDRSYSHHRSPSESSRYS
UniProt Q9UMS0: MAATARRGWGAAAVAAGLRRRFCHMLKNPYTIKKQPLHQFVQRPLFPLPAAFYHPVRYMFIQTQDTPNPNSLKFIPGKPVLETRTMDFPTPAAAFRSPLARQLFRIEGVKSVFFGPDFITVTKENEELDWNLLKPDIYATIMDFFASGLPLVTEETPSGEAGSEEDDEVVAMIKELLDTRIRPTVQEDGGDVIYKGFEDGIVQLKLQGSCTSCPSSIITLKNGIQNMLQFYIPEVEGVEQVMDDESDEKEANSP
UniProt Q8N5F7: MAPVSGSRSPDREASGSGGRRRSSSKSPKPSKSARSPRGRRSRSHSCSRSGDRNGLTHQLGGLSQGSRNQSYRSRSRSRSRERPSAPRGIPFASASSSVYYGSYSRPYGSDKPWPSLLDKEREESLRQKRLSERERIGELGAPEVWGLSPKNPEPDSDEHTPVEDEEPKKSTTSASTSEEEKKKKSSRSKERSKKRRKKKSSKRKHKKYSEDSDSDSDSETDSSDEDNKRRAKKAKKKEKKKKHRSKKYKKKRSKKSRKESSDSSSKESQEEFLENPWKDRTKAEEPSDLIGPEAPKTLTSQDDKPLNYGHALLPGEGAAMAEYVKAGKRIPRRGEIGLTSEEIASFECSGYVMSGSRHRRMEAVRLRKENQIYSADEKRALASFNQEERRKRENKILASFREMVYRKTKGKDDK
UniProt Q12986: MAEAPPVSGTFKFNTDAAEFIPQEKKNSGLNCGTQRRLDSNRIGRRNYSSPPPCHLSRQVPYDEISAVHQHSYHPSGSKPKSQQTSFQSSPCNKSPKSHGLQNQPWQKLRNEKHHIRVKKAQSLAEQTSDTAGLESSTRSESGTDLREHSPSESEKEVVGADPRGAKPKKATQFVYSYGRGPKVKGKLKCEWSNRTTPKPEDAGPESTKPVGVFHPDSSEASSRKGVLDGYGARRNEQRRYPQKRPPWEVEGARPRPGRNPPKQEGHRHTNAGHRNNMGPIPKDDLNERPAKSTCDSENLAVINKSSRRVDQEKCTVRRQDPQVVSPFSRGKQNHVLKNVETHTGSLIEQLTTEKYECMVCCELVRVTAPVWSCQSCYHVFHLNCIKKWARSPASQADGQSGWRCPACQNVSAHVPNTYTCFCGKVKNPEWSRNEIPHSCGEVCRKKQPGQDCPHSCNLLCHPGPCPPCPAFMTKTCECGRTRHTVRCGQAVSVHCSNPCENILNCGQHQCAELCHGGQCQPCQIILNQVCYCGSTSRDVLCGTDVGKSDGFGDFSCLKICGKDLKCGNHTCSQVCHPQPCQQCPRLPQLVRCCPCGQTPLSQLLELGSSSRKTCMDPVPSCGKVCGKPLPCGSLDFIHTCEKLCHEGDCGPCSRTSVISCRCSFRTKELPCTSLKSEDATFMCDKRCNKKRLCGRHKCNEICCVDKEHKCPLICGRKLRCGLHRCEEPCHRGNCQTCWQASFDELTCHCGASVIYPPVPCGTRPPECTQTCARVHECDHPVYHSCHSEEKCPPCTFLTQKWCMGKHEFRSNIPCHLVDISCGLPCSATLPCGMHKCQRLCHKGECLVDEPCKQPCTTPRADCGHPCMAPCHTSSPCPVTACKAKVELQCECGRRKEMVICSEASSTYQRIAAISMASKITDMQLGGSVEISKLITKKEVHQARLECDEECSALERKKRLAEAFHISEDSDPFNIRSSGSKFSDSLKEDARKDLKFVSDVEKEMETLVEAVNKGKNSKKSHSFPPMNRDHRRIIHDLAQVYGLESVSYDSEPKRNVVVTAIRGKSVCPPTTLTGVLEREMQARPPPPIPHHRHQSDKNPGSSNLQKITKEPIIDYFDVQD
UniProt P48645: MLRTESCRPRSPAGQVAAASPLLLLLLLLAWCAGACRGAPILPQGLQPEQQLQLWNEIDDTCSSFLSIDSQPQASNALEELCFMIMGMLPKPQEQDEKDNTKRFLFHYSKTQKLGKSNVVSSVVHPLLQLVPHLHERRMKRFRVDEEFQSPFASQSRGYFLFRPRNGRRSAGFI
UniProt P23511, whole entry, looked up: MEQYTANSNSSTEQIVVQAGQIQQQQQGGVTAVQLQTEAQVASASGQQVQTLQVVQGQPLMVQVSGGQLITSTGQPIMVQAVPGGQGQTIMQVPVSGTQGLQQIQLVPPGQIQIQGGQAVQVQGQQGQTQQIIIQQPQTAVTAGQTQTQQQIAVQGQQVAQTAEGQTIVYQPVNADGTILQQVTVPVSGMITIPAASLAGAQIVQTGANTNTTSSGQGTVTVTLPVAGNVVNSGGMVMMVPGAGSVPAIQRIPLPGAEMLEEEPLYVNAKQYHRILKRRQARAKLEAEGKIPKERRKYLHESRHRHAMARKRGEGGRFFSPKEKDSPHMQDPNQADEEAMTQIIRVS
UniProt Q13952: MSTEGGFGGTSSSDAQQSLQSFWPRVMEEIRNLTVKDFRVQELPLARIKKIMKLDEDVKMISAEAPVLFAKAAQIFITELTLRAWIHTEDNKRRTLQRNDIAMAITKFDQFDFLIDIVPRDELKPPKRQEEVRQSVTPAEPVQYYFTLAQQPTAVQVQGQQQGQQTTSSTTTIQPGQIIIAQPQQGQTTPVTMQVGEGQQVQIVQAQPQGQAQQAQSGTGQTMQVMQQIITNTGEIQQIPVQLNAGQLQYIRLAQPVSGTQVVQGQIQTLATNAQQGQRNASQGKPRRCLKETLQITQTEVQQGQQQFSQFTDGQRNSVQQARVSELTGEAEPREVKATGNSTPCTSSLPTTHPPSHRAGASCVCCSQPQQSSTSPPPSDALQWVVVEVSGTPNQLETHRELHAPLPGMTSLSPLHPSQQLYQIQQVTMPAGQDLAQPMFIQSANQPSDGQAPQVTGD
UniProt Q9UMY1: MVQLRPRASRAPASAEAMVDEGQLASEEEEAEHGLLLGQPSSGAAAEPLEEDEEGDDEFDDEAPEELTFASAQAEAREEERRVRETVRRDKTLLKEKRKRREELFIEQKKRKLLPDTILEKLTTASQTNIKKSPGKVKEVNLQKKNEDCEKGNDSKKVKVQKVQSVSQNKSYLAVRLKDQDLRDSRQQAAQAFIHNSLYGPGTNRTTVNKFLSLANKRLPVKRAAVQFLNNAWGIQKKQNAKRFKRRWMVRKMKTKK
UniProt Q86WQ0: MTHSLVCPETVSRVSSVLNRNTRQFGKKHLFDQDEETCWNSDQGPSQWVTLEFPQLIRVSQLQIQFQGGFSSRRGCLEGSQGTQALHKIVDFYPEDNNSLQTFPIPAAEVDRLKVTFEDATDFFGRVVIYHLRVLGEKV

Key:
Experiment in all cases: log2 fold change, soluble protein after heating vs DMSO (PISA); higher = thermal stabilisation; K562 cells, 10 uM, 30 min; active = over 0.2 and 3.5 SD of the protein, either way, in both replicates (recomputed)
[1] = compound: C1=CC=C(C=C1)[C@H](COC2=CC3=C(C=C2)NC(=O)N3)NC(=O)C4=CC=CN(C4=O)CC5=CC(=C(C=C5)F)F
In short: (§1)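 K562 cells (2×10^6 cells/mL) were treated with 10 μM compound for 30 min, and aliquots were heated for 3 min over 48°C-58°C. Pooled aliquots were extracted in PBS with 0.5% NP-40 at 4°C, and the supernatant after 21,000xg for 90 min was measured by TMTpro 16plex LC-MS/MS with channel sums equalised. Reported thermal stability, relative to control samples and from duplicates, is a log2 fold change.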

[2] = compound: CC1=C(SC2=C1C(=N[C@H](C3=NN=C(N32)C)CC(=O)N)C4=CC=C(C=C4)Cl)C
In short: as §1

[3] = compound: CC1=C2C(=CC=C1)N=C(N(C2=O)C3=CC=CC=C3C)CN4C=NC5=C(N=CN=C54)N
In short: as §1

[4] = compound: Cc1sc2c(c1C)C(c1ccc(Cl)cc1)=N[C@@H](CC(=O)OC(C)(C)C)c1nnc(C)n1-2
In short: as §1

[5] = compound: c1ccc([C@@H]2C[C@H]2NC2CCNCC2)cc1
In short: as §1

Measured: log2 fold change

NOC3L (UniProt Q8WTT2)
inactive: [1] -0.188

NOP16 (UniProt Q9Y3C1)
inactive: [1] 0.17 | [2] -0.37 | [3] -0.326 | [4] 0.179 | [5] 0

NONO (UniProt Q15233)
inactive: [1] -0.092 | [2] -0.179 | [3] -0.039 | [4] 0.004 | [5] 0.018

NSDHL (UniProt Q15738)
inactive: [1] 0.029 | [2] 0.047 | [3] 0.019 | [4] 0 | [5] -0.034

NMD3 (UniProt Q96D46)
inactive: [1] -0.046 | [2] 0.049 | [3] 0.01 | [4] -0.02 | [5] -0.11

NMNAT3 (UniProt Q96T66)
inactive: [1] -0.073

NF1 (UniProt P21359)
inactive: [1] -0.075 | [2] 0.078 | [3] 0.137 | [4] -0.015 | [5] -0.134

NR2C2 isoform 2 (UniProt P49116)
inactive: [1] -0.011 | [2] 0.046 | [3] 0.059 | [4] 0.042 | [5] 0.024

NIF3L1 (UniProt Q9GZT8)
inactive: [1] 0.119 | [2] 0.002 | [3] 0.024 | [4] -0.011 | [5] 0.011

NOSIP (UniProt Q9Y314)
inactive: [1] 0.056 | [2] 0.043 | [3] 0.179 | [4] -0.043 | [5] 0.016

NMI (UniProt Q13287)
inactive: [1] 0.024 | [2] 0.067 | [3] 0.067 | [4] 0.003 | [5] 0.022

NME1 isoform 2 (UniProt P15531)
inactive: [1] 0.095 | [2] 0.142 | [3] 0.069 | [4] 0.033 | [5] -0.108

NQO2 (UniProt P16083)
inactive: [1] 0.024 | [2] 0.008 | [3] -0.001 | [4] -0.005 | [5] 0.005

NPC1L1 (UniProt Q9UHC9)
inactive: [1] 0.183 | [2] 0.063 | [3] 0.024 | [4] 0.007 | [5] 0.047

NIPSNAP3A (UniProt Q9UFN0)
inactive: [1] 0.052 | [2] 0.011 | [3] 0 | [4] 0.023 | [5] 0.038

NELFB isoform 2 (UniProt Q8WX92)
inactive: [1] -0.098 | [2] 0.12 | [3] 0.123 | [4] -0.05 | [5] -0.023

NFAT5 isoform 5 (UniProt O94916)
inactive: [1] 0.004 | [2] -0.085 | [3] 0.032 | [4] 0.09 | [5] 0.028

NOL12 (UniProt Q9UGY1)
inactive: [1] 0.123 | [2] -0.214 | [3] -0.234 | [4] 0.116 | [5] 0.047

NIPSNAP2 (UniProt C9J7B1)
inactive: [1] -0.069

NIP7 (UniProt Q9Y221)
inactive: [1] 0.18 | [2] -0.254 | [3] -0.207 | [4] 0.144 | [5] -0.051

NIPSNAP1 (UniProt Q9BPW8)
inactive: [1] 0.01 | [2] 0.088 | [3] 0.143 | [4] -0.021 | [5] -0.102

NPC2 (UniProt P61916)
inactive: [1] -0.01 | [2] -0.017 | [3] -0.024 | [4] -0.012 | [5] 0.033

NOS1AP (UniProt O75052)
inactive: [1] -0.109 | [2] 0.025 | [3] 0.362 | [4] -0.141 | [5] -0.178

NSD1 (UniProt Q96L73)
inactive: [1] 0.016

NPM3 (UniProt O75607)
inactive: [1] 0.066 | [2] -0.08 | [3] -0.087 | [4] 0.107 | [5] -0.019

NOMO3 (UniProt P69849)
inactive: [1] 0.036

NRGN (UniProt Q92686)
inactive: [1] 0.048

NHEJ1 (UniProt Q9H9Q4)
inactive: [1] -0.008 | [2] 0.043 | [3] 0.131 | [4] -0.179 | [5] -0.041

NKTR (UniProt P30414)
inactive: [1] 0.014

NR2F2 (UniProt P24468)
inactive: [1] -0.061 | [2] 0.015 | [3] 0.044 | [4] -0.045 | [5] -0.051

NME7 (UniProt Q9Y5B8)
inactive: [1] -0.112 | [2] 0.098 | [3] 0.175 | [4] 0.096 | [5] -0.038

NSA2 (UniProt O95478)
inactive: [1] -0.411

NHP2 (UniProt Q9NX24)
inactive: [1] 0 | [2] -0.135 | [3] -0.138 | [4] 0.122 | [5] 0.133

NGRN (UniProt Q9NPE2)
inactive: [1] 0.056 | [2] 0.043 | [3] 0.054 | [4] 0.058 | [5] -0.002

NME2P1 (UniProt O60361)
inactive: [1] -0.171 | [2] 0.079 | [3] 0.063 | [4] 0.082 | [5] -0.004

NLRP2 (UniProt Q9NX02)
inactive: [1] -0.084 | [2] 0 | [3] 0.107 | [4] 0 | [5] -0.025

NFU1 (UniProt Q9UMS0)
inactive: [1] 0.04 | [2] 0.055 | [3] 0.056 | [4] -0.088 | [5] -0.036

3 neighbouring records out of the list so far, for reference:
NOSIP (UniProt Q9Y314)
inactive: [1] 0.056 | [2] 0.043 | [3] 0.179 | [4] -0.043 | [5] 0.016

NMI (UniProt Q13287)
inactive: [1] 0.024 | [2] 0.067 | [3] 0.067 | [4] 0.003 | [5] 0.022

NME1 isoform 2 (UniProt P15531)
inactive: [1] 0.095 | [2] 0.142 | [3] 0.069 | [4] 0.033 | [5] -0.108

Next part.

NIBAN2 (UniProt Q96TA1)
inactive: [1] -0.021 | [2] 0.035 | [3] 0.069 | [4] -0.012 | [5] -0.018

NOP53 (UniProt Q9NZM5)
inactive: [1] 0.103 | [2] -0.332 | [3] -0.415 | [4] 0.353 | [5] 0.097

NKAP (UniProt Q8N5F7)
inactive: [1] -0.013 | [2] 0.148 | [3] 0.049 | [4] 0.078 | [5] 0.171

NRBF2 (UniProt Q96F24)
inactive: [1] 0.003 | [2] 0.035 | [3] 0.07 | [4] 0.069 | [5] 0.025

NMNAT1 (UniProt Q9HAN9)
inactive: [1] 0.1 | [2] -0.055 | [3] -0.088 | [4] 0.304 | [5] 0.02

NFATC3 (UniProt Q12968)
inactive: [1] -0.03 | [2] 0.081 | [3] 0.12 | [4] 0.16 | [5] 0.065

NOMO2 (UniProt Q5JPE7)
inactive: [1] 0.027 | [2] 0.029 | [3] 0.027 | [4] -0.036 | [5] -0.019

NLN (UniProt Q9BYT8)
inactive: [1] -0.001 | [2] 0.03 | [3] 0.012 | [4] -0.054 | [5] -0.013

NIPA1 (UniProt Q7RTP0)
inactive: [1] 0.105 | [2] 0.07 | [3] 0.083 | [4] -0.08 | [5] 0.118

NPM1 (UniProt P06748)
inactive: [1] 0.086 | [2] -0.273 | [3] -0.265 | [4] 0.203 | [5] 0

NME3 (UniProt Q13232)
inactive: [1] 0.001 | [2] 0.003 | [3] 0.036 | [4] 0.022 | [5] 0.013

NOL6 (UniProt Q9H6R4)
inactive: [1] -0.029 | [2] -0.174 | [3] -0.128 | [4] 0.128 | [5] 0.035

NOP2 isoform 4 (UniProt P46087)
inactive: [1] 0.184 | [2] -0.494 | [3] -0.694 | [4] 0.409 | [5] -0.009

NFKBIB (UniProt Q15653)
inactive: [1] 0.01 | [2] 0.051 | [3] 0.097 | [4] -0.015 | [5] -0.012

NFX1 (UniProt Q12986)
inactive: [1] -0.011 | [2] -0.161 | [3] -0.068 | [4] 0.115 | [5] -0.163

NMU (UniProt P48645)
inactive: [1] -0.109 | [2] 0.008 | [3] -0.03 | [4] 0.066 | [5] -0.086

NOL11 (UniProt Q9H8H0)
inactive: [1] 0.007 | [2] 0 | [3] -0.008 | [4] -0.014 | [5] 0.025

NEMP1 (UniProt O14524)
inactive: [1] 0.015 | [2] -0.003 | [3] 0.036 | [4] 0.048 | [5] -0.018

NFYA (UniProt P23511)
inactive: [1] -0.019 | [2] 0.08 | [3] 0.09 | [4] 0.018 | [5] -0.066

NFYC (UniProt Q13952)
inactive: [1] 0.002 | [2] 0.063 | [3] 0.036 | [4] 0.014 | [5] -0.014

NOL7 (UniProt Q9UMY1)
inactive: [1] 0.168 | [2] -0.221 | [3] -0.265 | [4] 0.188 | [5] 0.057

NR2C2AP isoform 2 (UniProt Q86WQ0)
inactive: [1] -0.016 | [2] 0.043 | [3] 0.081 | [4] -0.067 | [5] 0.032
